Measurements reported in publication doi:10.1101/451823.
Where two headings read alike, the source gives them in different places. No constants are given. Whether binding was seen depends on the method and setting. In cells and extracts the contact can be indirect. Some entries that bind do so weakly or less than the wild type. One block for each molecule: values may come before it.

The chains behind the UniProt entries cited, without tags or fusion partners.
UniProt O14744: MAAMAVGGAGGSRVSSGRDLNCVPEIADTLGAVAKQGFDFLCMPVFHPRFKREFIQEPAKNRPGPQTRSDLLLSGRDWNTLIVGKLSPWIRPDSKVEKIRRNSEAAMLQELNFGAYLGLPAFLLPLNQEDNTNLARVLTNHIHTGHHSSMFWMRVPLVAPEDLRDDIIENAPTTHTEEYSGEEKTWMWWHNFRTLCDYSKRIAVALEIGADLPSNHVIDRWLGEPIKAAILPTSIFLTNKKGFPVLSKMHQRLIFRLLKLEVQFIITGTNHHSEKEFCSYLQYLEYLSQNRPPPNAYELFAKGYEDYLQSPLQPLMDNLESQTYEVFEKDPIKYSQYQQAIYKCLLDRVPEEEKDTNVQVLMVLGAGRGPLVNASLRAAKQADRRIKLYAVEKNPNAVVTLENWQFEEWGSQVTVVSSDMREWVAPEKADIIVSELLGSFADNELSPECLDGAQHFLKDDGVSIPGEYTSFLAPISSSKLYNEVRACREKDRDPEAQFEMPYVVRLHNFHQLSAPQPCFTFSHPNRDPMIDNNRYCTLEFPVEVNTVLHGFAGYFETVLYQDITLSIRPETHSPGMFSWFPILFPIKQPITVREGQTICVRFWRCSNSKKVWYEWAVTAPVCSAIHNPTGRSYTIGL
UniProt P17844: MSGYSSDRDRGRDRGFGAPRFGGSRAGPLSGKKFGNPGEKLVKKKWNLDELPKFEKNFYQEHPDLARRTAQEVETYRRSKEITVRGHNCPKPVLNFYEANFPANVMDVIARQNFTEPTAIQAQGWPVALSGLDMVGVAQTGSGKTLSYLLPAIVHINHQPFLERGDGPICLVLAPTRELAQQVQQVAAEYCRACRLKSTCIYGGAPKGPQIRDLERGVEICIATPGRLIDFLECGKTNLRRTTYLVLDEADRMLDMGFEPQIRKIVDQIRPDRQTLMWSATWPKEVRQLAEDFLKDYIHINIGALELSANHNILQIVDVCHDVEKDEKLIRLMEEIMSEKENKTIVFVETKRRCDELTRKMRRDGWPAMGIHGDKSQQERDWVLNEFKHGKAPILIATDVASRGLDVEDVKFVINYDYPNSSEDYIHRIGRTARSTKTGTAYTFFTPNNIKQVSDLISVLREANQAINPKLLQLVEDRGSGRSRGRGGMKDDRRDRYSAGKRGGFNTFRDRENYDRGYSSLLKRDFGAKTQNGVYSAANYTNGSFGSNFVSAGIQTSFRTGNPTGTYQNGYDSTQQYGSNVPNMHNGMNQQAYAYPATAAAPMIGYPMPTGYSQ

Experiments:
Experiment in all cases: co-IP
[1] = target: T1, XRN2 (human (endogenous in U2OS and HEK293)) (UniProt Q9H0D6)
T1 sequence: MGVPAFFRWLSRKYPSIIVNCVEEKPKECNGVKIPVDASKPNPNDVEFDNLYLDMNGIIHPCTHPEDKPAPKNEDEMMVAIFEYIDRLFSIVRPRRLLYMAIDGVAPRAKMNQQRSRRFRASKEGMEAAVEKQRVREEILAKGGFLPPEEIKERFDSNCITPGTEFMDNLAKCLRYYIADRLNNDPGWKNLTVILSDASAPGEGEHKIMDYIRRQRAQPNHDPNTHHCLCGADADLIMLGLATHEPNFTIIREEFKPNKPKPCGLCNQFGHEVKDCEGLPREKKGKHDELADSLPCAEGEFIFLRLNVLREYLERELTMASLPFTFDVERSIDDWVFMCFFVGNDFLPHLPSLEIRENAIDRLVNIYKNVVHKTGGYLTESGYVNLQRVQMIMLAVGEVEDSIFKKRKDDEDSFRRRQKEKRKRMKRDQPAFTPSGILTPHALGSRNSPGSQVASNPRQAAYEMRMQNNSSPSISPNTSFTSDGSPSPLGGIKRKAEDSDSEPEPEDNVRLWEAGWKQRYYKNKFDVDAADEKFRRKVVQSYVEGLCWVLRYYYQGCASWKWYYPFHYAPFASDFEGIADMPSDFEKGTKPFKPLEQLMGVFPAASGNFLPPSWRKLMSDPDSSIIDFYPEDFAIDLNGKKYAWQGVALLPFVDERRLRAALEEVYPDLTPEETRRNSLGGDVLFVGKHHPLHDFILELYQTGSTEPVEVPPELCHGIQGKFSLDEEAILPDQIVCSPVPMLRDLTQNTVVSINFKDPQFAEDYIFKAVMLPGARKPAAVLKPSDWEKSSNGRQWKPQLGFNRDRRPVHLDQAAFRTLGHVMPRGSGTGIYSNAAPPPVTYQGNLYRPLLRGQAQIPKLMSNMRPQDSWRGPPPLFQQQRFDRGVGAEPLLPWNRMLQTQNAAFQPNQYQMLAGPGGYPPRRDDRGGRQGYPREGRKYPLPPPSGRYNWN

[2] = target: PRMT5 (human (endogenous in U2OS)) (UniProt O14744)
[3] = target: DDX5 (human (endogenous in U2OS)) (UniProt P17844)
Flag-DDX5 (human) [4] = target: Flag-DDX5 (human) (UniProt P17844)
Flag-DDX5 (human) [5] = target: Flag-DDX5 (human) (UniProt P17844); remark: listed apart in the source

binding [1]: binds
binding [2]: binds
Molecule: DDX5 (from UniProt P17844 1-614)

binding [3]: binds
Molecule: PRMT5 (from UniProt O14744 1-637) (enzyme)

binding (Flag-DDX5 (human) [4]): binds
binding (Flag-DDX5 (human) [5]): binds
B1: XRN2 (enzyme, UniProt Q9H0D6 1-950)
chain: T1 sequence
